These are yes or no findings as the source states them, for the method shown. In cells and extracts the contact can be indirect. Here binding means that the protein was enriched with, or labelled near, the bait; the list need not be complete.
What was measured:
[1] = target: GFP-P1 (rabies virus CVS-11 phosphoprotein, full-length isoform P1, fused to GFP) (rabies virus, strain CVS-11) (UniProt P22363); assay: affinity purification with mass spectrometry
[2] = target: GFP-P3 (rabies virus CVS-11 phosphoprotein, truncated isoform P3, residues 53-297, fused to GFP) (rabies virus, strain CVS-11) (UniProt P22363); assay: affinity purification with mass spectrometry

Protein sequences, listed by entry. Tags and fused reporters are not part of them. Lines headed by an entry give the natural chain unless they say otherwise; changes in a name come on top. Chains listed by the source or under a name are the forms on record and can include a tag or linker. Residues count along the entry.
UniProt P22363: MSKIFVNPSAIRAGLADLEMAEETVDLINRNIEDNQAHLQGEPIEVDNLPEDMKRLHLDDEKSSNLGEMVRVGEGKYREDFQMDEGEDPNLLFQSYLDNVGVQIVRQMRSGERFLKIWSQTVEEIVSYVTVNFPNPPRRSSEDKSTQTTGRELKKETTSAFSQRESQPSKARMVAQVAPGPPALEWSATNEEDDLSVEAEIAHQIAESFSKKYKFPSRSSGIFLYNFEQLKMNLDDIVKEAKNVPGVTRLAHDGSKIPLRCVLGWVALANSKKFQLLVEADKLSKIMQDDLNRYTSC
GFP-P3 (rabies virus CVS-11 phosphoprotein, truncated isoform P3, residues 53-297, fused to GFP): residues 53-297 of P22363

B1: RBM14 (protein, UniProt Q96PK6 1-669)
chain: MKIFVGNVDGADTTPEELAALFAPYGTVMSCAVMKQFAFVHMRENAGALRAIEALHGHELRPGRALVVEMSRPRPLNTWKIFVGNVSAACTSQELRSLFERRGRVIECDVVKDYAFVHMEKEADAKAAIAQLNGKEVKGKRINVELSTKGQKKGPGLAVQSGDKTKKPGAGDTAFPGTGGFSATFDYQQAFGNSTGGFDGQARQPTPPFFGRDRSPLRRSPPRASYVAPLTAQPATYRAQPSVSLGAAYRAQPSASLGVGYRTQPMTAQAASYRAQPSVSLGAPYRGQLASPSSQSAAASSLGPYGGAQPSASALSSYGGQAAAASSLNSYGAQGSSLASYGNQPSSYGAQAASSYGVRAAASSYNTQGAASSLGSYGAQAASYGAQSAASSLAYGAQAASYNAQPSASYNAQSAPYAAQQAASYSSQPAAYVAQPATAAAYASQPAAYAAQATTPMAGSYGAQPVVQTQLNSYGAQASMGLSGSYGAQSAAAATGSYGAAAAYGAQPSATLAAPYRTQSSASLAASYAAQQHPQAAASYRGQPGNAYDGAGQPSAAYLSMSQGAVANANSTPPPYERTRLSPPRASYDDPYKKAVAMSKRYGSDRRLAELSDYRRLSESQLSFRRSPTKSSLDYRRLPDAHSDYARYSGSYNDYLRAAQMHSGYQRRM
binding [1]: binds | binding [2]: binds

B2: fibrillarin (FBL) (protein, UniProt P22087 1-321)
chain: MKPGFSPRGGGFGGRGGFGDRGGRGGRGGFGGGRGRGGGFRGRGRGGGGGGGGGGGGGRGGGGFHSGGNRGRGRGGKRGNQSGKNVMVEPHRHEGVFICRGKEDALVTKNLVPGESVYGEKRVSISEGDDKIEYRAWNPFRSKLAAAILGGVDQIHIKPGAKVLYLGAASGTTVSHVSDIVGPDGLVYAVEFSHRSGRDLINLAKKRTNIIPVIEDARHPHKYRMLIAMVDVIFADVAQPDQTRIVALNAHTFLRNGGHFVISIKANCIDSTASAEAVFASEVKKMQQENMKPQEQLTLEPYERDHAVVVGVYRPPPKVKN
binding [2]: binds
